PubChem BioAssay AID504793 | Drosophila RNAi Screening Center, 2011
In all, the deposit lists about 23,000 reagents; shown is an unselected part of those with a known target gene and a result. Of all reagents, 62 (0.27%) were called active. 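Calls come from follow-up tests whose scores are not deposited, so confirmed genes may have low counts here; counts are not normalised per plate.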 Raw values are not corrected between plates. The numbers tell different reagents against one gene apart. Names joined by + are all predicted targets of the reagent. No sequences are given here.

- Purpose: 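Genes required for cells to halt at G2/M after double-strand DNA breaks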 (primary screen)
- Cells: Drosophila S2R+ cells
- Knock-down reagent: long dsRNA against Drosophila genes, about 0.25 µg dsRNA per well
- Time to read-out: 4 days of dsRNA, then 4 hours of drug before read-out
- Conditions: doxorubicin 0.5 µM for 4 hours to cause double-strand breaks, in cells also given a low, harmless dose of dsRNA against nbs to sensitise the assay
- Measurement: 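Per-well count of mitotic cells stained for phospho-histone H3 after doxorubicin exposure, used as mitotic index; counts are raw and not normalised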
- Direction: mitotic cells: higher = more cells in mitosis, weaker G2 arrest
- Active means: 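Genes are called active only when high mitotic counts were reproduced with independent dsRNAs and mitosis was checked for delay without damage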
- Meaning of the calls: active = confirmed in follow-up tests; inactive = not confirmed

gene knocked down | reagent no. | mitotic cells, replicate 1 | Outcome
su(r) | 1 | 6 | inactive
TM9SF3 | 1 | 8 | inactive
CG13323 + CG13324 | 1 | 4 | inactive
PVRAP | 1 | 1 | inactive
eIF3c | 1 | 6 | inactive
Femcoat | 1 | 7 | inactive
Femcoat | 2 | 4 | inactive
CG12182 | 1 | 4 | inactive
PGRP-LD + Cralbp + Pmi | 1 | 2 | inactive
Sodh2 | 1 | 5 | inactive
CG8248 | 1 | 2 | inactive
CG2790 | 1 | 5 | inactive
CG2790 | 2 | 3 | inactive
CG43707 | 1 | 3 | inactive
CG43707 | 2 | 6 | inactive
CG43707 | 3 | 11 | inactive
CG30339 | 1 | 12 | inactive
rpk | 1 | 1 | inactive
rpk | 2 | 4 | inactive
RhoGAP93B | 1 | 9 | inactive
CG31007 | 1 | 42 | inactive
CG31007 | 2 | 3 | inactive
Pfdn4 | 1 | 9 | inactive
Pfdn4 | 2 | 1 | inactive
Rpn3 | 1 | 37 | inactive
Rpn3 | 2 | 66 | inactive
Pldn | 1 | 12 | inactive
Pldn | 2 | 4 | inactive
DEF8 | 1 | 3 | inactive
Ilp3 | 1 | 3 | inactive
Gdap1 | 1 | 8 | inactive
Gdap1 | 2 | 3 | inactive
CG18343 | 1 | 7 | inactive
CG6686 | 1 | 13 | inactive
CG6686 | 2 | 3 | inactive
Klp67A | 1 | 35 | inactive
Klp67A | 2 | 49 | inactive
CG33127 | 1 | 7 | inactive
Rcd4 | 1 | – | inactive
CG10102 (retired record) | 1 | 6 | inactive
CG8209 | 1 | 9 | inactive
CG8209 | 2 | 8 | inactive
sac | 1 | 8 | inactive
sac | 2 | 3 | inactive
CG18558 | 1 | 13 | inactive
CG31099 | 1 | 17 | inactive
CG31099 | 2 | 6 | inactive
anchor | 1 | 9 | inactive
Cyp6u1 | 1 | 10 | inactive
Cyp6u1 | 2 | 11 | inactive
CG7384 | 1 | 9 | inactive
RpL30 | 1 | 5 | inactive
lncRNA:CR42862 | 1 | 10 | inactive
lncRNA:CR42862 | 2 | 4 | inactive
lncRNA:CR42862 | 3 | 6 | inactive
CG14069 | 1 | 7 | inactive
mah | 1 | 18 | inactive
mah | 2 | 7 | inactive
CG11131 | 1 | 8 | inactive
CG11131 | 2 | 3 | inactive
CG11131 | 3 | 10 | inactive
CG18539 | 1 | 7 | inactive
CG32425 | 1 | 3 | inactive
LManI | 1 | 4 | inactive
LManI | 2 | 11 | inactive
CG33233 | 1 | 4 | inactive
CG6569 | 1 | 7 | inactive
Cluap1 | 1 | 11 | inactive
Cluap1 | 2 | 19 | inactive
mRpS7 | 1 | 7 | inactive
CG14882 | 1 | 2 | inactive
CG14882 | 2 | 5 | inactive
CG31810 + CG31809 | 1 | 7 | inactive
ksr | 1 | 6 | inactive
ksr | 2 | 7 | inactive

Copied from above (7 entries):
gene knocked down | reagent no. | mitotic cells, replicate 1 | Outcome
Gdap1 | 2 | 3 | inactive
CG18343 | 1 | 7 | inactive
CG6686 | 1 | 13 | inactive
CG6686 | 2 | 3 | inactive
Klp67A | 1 | 35 | inactive
Klp67A | 2 | 49 | inactive
CG33127 | 1 | 7 | inactive
